One molecule from patent US20040023841A1, “Combinatorial method for rapid screening of drug delivery formulations” (priority 2003, published 2004) can be followed below.

SMILES strings stand for the structures.

This data set in a line: Loss of drug from donor hole of Teflon disc placed on stratum corneum. Particulars: drug in PBS, 2 mm hole, human SC, 24 hours contact, liquid scintillation counting. The format is in vitro ADME. Here is the method:
The following experiments were performed to assess the usefulness of a method, which determines the loss of a test substance from a formulation over time. Experiments were performed to assess whether this method can be used for estimation of skin permeability to drugs. For these studies, phosphate buffered saline was used as a model formulation. […] Ten holes were drilled into the disc and each hole was about 2 mm wide. The disc was then placed on the SC prepared from human skin. Solutions of nine different drugs in PBS were placed in various holes. The concentration of drugs in the solutions were measured at time zero. The drugs were allowed to remain in contact with the skin for 24 hours. Samples were taken from the holes at the end of 24 hours and then analyzed using a liquid scintillation counter. The amount of drug lost from the donor hole was calculated. Permeability measurements of the same drugs were performed using conventional methods that use macroscopic diffusion cells.

For `CCN(CC)CC(=O)Nc1c(C)cccc1C` [Lidocaine], the “% Drug Lost from the Hole” value is listed as 20%.
